PubChem BioAssay AID1224828 | NIAID, 2016

- Test: 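Find genes required for NF-kappaB p65 moving into the nucleus after LPS in mouse macrophages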 (primary screen)
- System: mouse RAW264.7 G9 macrophage reporter cells (GFP-p65, Tnf promoter-mCherry)
- Reagent: siRNA pool against mouse genes, 100 nM
- Duration: 2 days siRNA transfection, then 40 min LPS before fixation
- Conditions: LPS (Salmonella minnesota R595) at 10 ng/ml
- Measurement: 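Microscopy ratio of nuclear to perinuclear-ring GFP-p65 signal, scaled to the plate median; gene score is the average of two replicate robust z-scores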
- Reading the numbers: p65 translocation robust z-score: higher = more nuclear NF-kappaB p65 after LPS than the plate median; nuclear/cytoplasmic p65 ratio: higher = more nuclear NF-kappaB p65
- Call rule: 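Called active when z exceeds 3.3 or falls under -1.56 (median of Tlr4 controls), giving activity score of at least 50; no calls for control wells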
- Calls: active = hit (p65 shift raised or lowered); inactive = no clear change
The whole screen tested about 17,000 reagents; shown is an unselected part. 762 of all reagents (4.5%) were called active. 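Active calls include both raised and lowered p65 entry, mostly lowered; wells with fewer than 50 cells lack a z-score.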 Raw values are not corrected between plates. A number with no mark means an inactive call.

Or8b9: p65 translocation robust z-score = 0.15; nuclear/cytoplasmic p65 ratio, rep 1 = 1.53; nuclear/cytoplasmic p65 ratio, rep 2 = 1.23; low cell count flag = enough cells to score
Wnk3: p65 translocation robust z-score = -0.74; nuclear/cytoplasmic p65 ratio, rep 1 = 1.58; nuclear/cytoplasmic p65 ratio, rep 2 = 1.27; low cell count flag = enough cells to score
Rptn: nuclear/cytoplasmic p65 ratio, rep 1 = 1.3; nuclear/cytoplasmic p65 ratio, rep 2 = 1.24; low cell count flag = fewer than 50 cells per well; well left out of scoring
Sirt1: p65 translocation robust z-score = -0.98; nuclear/cytoplasmic p65 ratio, rep 1 = 1.4; nuclear/cytoplasmic p65 ratio, rep 2 = 1.43; low cell count flag = enough cells to score
Rev3l: p65 translocation robust z-score = 0.34; nuclear/cytoplasmic p65 ratio, rep 1 = 1.63; nuclear/cytoplasmic p65 ratio, rep 2 = 1.5; low cell count flag = enough cells to score
Basp1: p65 translocation robust z-score = -0.98; nuclear/cytoplasmic p65 ratio, rep 1 = 1.45; nuclear/cytoplasmic p65 ratio, rep 2 = 1.48; low cell count flag = enough cells to score
Pigr: p65 translocation robust z-score = 0.56; nuclear/cytoplasmic p65 ratio, rep 1 = 1.54; nuclear/cytoplasmic p65 ratio, rep 2 = 1.51; low cell count flag = enough cells to score
Derl3: nuclear/cytoplasmic p65 ratio, rep 1 = 1.32; nuclear/cytoplasmic p65 ratio, rep 2 = 1.15; low cell count flag = fewer than 50 cells per well; well left out of scoring
Musk: p65 translocation robust z-score = -0.6; nuclear/cytoplasmic p65 ratio, rep 1 = 1.48; nuclear/cytoplasmic p65 ratio, rep 2 = 1.3; low cell count flag = enough cells to score
Neto1: nuclear/cytoplasmic p65 ratio, rep 1 = 1.38; nuclear/cytoplasmic p65 ratio, rep 2 = 1.07; low cell count flag = fewer than 50 cells per well; well left out of scoring
4930474N05Rik: nuclear/cytoplasmic p65 ratio, rep 1 = 0.944; nuclear/cytoplasmic p65 ratio, rep 2 = 1.28; low cell count flag = fewer than 50 cells per well; well left out of scoring
Dcun1d1: p65 translocation robust z-score = 0.74; nuclear/cytoplasmic p65 ratio, rep 1 = 1.56; nuclear/cytoplasmic p65 ratio, rep 2 = 1.68; low cell count flag = enough cells to score

2 consecutive reagents already listed, quoted:
Neto1: nuclear/cytoplasmic p65 ratio, rep 1 = 1.38; nuclear/cytoplasmic p65 ratio, rep 2 = 1.07; low cell count flag = fewer than 50 cells per well; well left out of scoring
4930474N05Rik: nuclear/cytoplasmic p65 ratio, rep 1 = 0.944; nuclear/cytoplasmic p65 ratio, rep 2 = 1.28; low cell count flag = fewer than 50 cells per well; well left out of scoring

Continued.
Apcdd1: p65 translocation robust z-score = 0.15; nuclear/cytoplasmic p65 ratio, rep 1 = 1.4; nuclear/cytoplasmic p65 ratio, rep 2 = 1.55; low cell count flag = enough cells to score
Ctu1: p65 translocation robust z-score = -1.1; nuclear/cytoplasmic p65 ratio, rep 1 = 1.41; nuclear/cytoplasmic p65 ratio, rep 2 = 1.41; low cell count flag = enough cells to score
Inpp5b: p65 translocation robust z-score = -1.71 (active); nuclear/cytoplasmic p65 ratio, rep 1 = 1.21; nuclear/cytoplasmic p65 ratio, rep 2 = 1.2; low cell count flag = enough cells to score
Arid1a: p65 translocation robust z-score = -0.01; nuclear/cytoplasmic p65 ratio, rep 1 = 1.67; nuclear/cytoplasmic p65 ratio, rep 2 = 1.57; low cell count flag = enough cells to score
Rnf11: nuclear/cytoplasmic p65 ratio, rep 1 = 1.23; nuclear/cytoplasmic p65 ratio, rep 2 = 1.03; low cell count flag = fewer than 50 cells per well; well left out of scoring
Bms1: p65 translocation robust z-score = 2.11; nuclear/cytoplasmic p65 ratio, rep 1 = 1.72; nuclear/cytoplasmic p65 ratio, rep 2 = 1.82; low cell count flag = enough cells to score
Anxa10: p65 translocation robust z-score = 0.43; nuclear/cytoplasmic p65 ratio, rep 1 = 1.61; nuclear/cytoplasmic p65 ratio, rep 2 = 1.76; low cell count flag = enough cells to score
Slc66a2: nuclear/cytoplasmic p65 ratio, rep 1 = 1.32; nuclear/cytoplasmic p65 ratio, rep 2 = 1.28; low cell count flag = fewer than 50 cells per well; well left out of scoring
Ppp1cc: p65 translocation robust z-score = 0.27; nuclear/cytoplasmic p65 ratio, rep 1 = 1.47; nuclear/cytoplasmic p65 ratio, rep 2 = 1.5; low cell count flag = enough cells to score
Or8b55: p65 translocation robust z-score = -0.16; nuclear/cytoplasmic p65 ratio, rep 1 = 1.45; nuclear/cytoplasmic p65 ratio, rep 2 = 1.2; low cell count flag = enough cells to score
Psd4: p65 translocation robust z-score = 0.68; nuclear/cytoplasmic p65 ratio, rep 1 = 1.66; nuclear/cytoplasmic p65 ratio, rep 2 = 1.77; low cell count flag = enough cells to score
Spc24: nuclear/cytoplasmic p65 ratio, rep 1 = 0.812; nuclear/cytoplasmic p65 ratio, rep 2 = 1.85; low cell count flag = fewer than 50 cells per well; well left out of scoring
Or10q12: p65 translocation robust z-score = 0.74; nuclear/cytoplasmic p65 ratio, rep 1 = 1.66; nuclear/cytoplasmic p65 ratio, rep 2 = 1.57; low cell count flag = enough cells to score
Psma6: nuclear/cytoplasmic p65 ratio, rep 1 = 1.36; nuclear/cytoplasmic p65 ratio, rep 2 = 1.12; low cell count flag = fewer than 50 cells per well; well left out of scoring
Ago4: p65 translocation robust z-score = 0.17; nuclear/cytoplasmic p65 ratio, rep 1 = 1.5; nuclear/cytoplasmic p65 ratio, rep 2 = 1.37; low cell count flag = enough cells to score
